From doi:10.1101/2021.09.16.460643 (bioRxiv, 2021)

B1: full length AHK5 tagged N-terminally with mRFP1 (protein, UniProt Q3S4A7 1-922)
chain: MVCEMETDQIEEMDVEVLSSMWPEDVGTEADKQFNVEKPAGDLDTLKEVTIETRTIADMTRLPNLLNSTHQGSSQLTNLVKQWEYMQDNAVRLLKEELKNLDRQREEAEAKELKIIEEYKFESNEPENVPVLDETSDLFRRFRQKKRDALVDSKKIEIYEEFDTVAYWKQKALSLEKMLEASTERERRLMEKLSESLKTMESQSAPVQELTQNLKRAEGFLHFILQNAPIVMGHQDKDLRYLFIYNKYPSLREQDILGKTDVEIFHGGGVKESEDFKREVLEKGKASKREITFTTDLFGSKTFLIYVEPVYNKAGEKIGINYMGMEVTDQVVKREKMAKLREDNAVRKAMESELNKTIHITEETMRAKQMLATMSHEIRSPLSGVVGMAEILSTTKLDKEQRQLLNVMISSGDLVLQLINDILDLSKVESGVMRLEATKFRPREVVKHVLQTAAASLKKSLTLEGNIADDVPIEVVGDVLRIRQILTNLISNAIKFTHEGNVGIKLQVISEPSFVRDNALNADTEEHEQNGLTETSVWICCDVWDTGIGIPENALPCLFKKYMQASADHARKYGGTGLGLAICKQLVELMGGQLTVTSRVSEGSTFTFILPYKVGRSDDYSDDQDEFSDMADQQSEPDDTAEGYFQFKPLLGSIYSNGGPGISNDFLPHKVMLTSPIKLINGFVADPSNNTGQSEMLQLENGGYMDESKLETSSGHCPESAHQYENGNGRCFSKESESCSSSQASSEGGTLEMESELTVSSHREEEKAETEVKETSKPKILLVEDNKINIMVAKSMMKQLGHTMDIANNGVEAITAINSSSYDLVLMDVCMPVLDGLKATRLIRSYEETGNWNAAIEAGVDISTSENEQVCMRPTNRLPIIAMTANTLAESSEECYANGMDSFISKPVTLQKLRECLQQYLH
B2: full length AHK5 tagged C-terminally with mRFP1 (protein, UniProt Q3S4A7 1-922)
chain: B1 chain

Molecular target: cytoplasmic part of ETR1 (ETR1 without transmembrane domain, ΔTM-ETR1) with C-terminal GFP (Arabidopsis thaliana)
Experiment: FRET or BRET

Row | Binder | binding
1 | B1 | binds
2 | B2 | binds

These are yes or no findings as the source states them, for the method shown. In cells and extracts the contact can be indirect. A result given as binding can be weak or reduced; the word gives no strength. Tags and fused reporters may be left off the sequences shown.
